# Cleaved PARP after 72 h of treatment

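Human melanoma cells were exposed to two drugs together for 72 h in 1,536-well plates and read by automated microscopy after fixing and staining. The read-out is the fraction of cleaved-PARP-positive nuclei, in % of that fraction in the DMSO control; 200 means twice the control level of this apoptosis marker. Concentrations were fixed for each drug; these are the higher of two levels. The file gives one value for each pair and line, without errors, so small differences may be noise. The marker varies much from line to line, for technical or biological reasons.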
Only some of the drugs and lines screened are listed, without regard to their results.
A dash means that no value is listed here.

Drug key:
everolimus, 0.1 µM: CO[C@H]1C[C@@H]2CC[C@@H](C)[C@@](O)(O2)C(=O)C(=O)N2CCCC[C@H]2C(=O)O[C@H]([C@H](C)C[C@@H]2CC[C@@H](OCCO)[C@H](OC)C2)CC(=O)[C@H](C)/C=C(\C)[C@@H](O)[C@@H](OC)C(=O)[C@H](C)C[C@H](C)/C=C/C=C/C=C/1C
veliparib, 7 µM: C[C@]1(c2nc3c(C(N)=O)cccc3[nH]2)CCCN1
pazopanib, 2 µM: Cc1ccc(Nc2nccc(N(C)c3ccc4c(C)n(C)nc4c3)n2)cc1S(N)(=O)=O
CX-4945, 2 µM: O=C(O)c1ccc2c(c1)nc(Nc1cccc(Cl)c1)c1ccncc12
LFM-A13, 10 µM: C/C(O)=C(\C#N)C(=O)Nc1cc(Br)ccc1Br
lenalidomide, 5 µM: Nc1cccc2c1CN(C1CCC(=O)NC1=O)C2=O (centres unmarked)
perifosine, 2 µM: CCCCCCCCCCCCCCCCCCOP(=O)([O-])OC1CC[N+](C)(C)CC1
JZL184, 5 µM: O=C(Oc1ccc([N+](=O)[O-])cc1)N1CCC(C(O)(c2ccc3c(c2)OCO3)c2ccc3c(c2)OCO3)CC1
TCS401, 8.33 µM: O=C(O)C(=O)Nc1sc2c(c1C(=O)O)CCNC2
crizotinib, 1 µM: C[C@@H](Oc1cc(-c2cnn(C3CCNCC3)c2)cnc1N)c1c(Cl)ccc(F)c1Cl
midostaurin, 0.4 µM: CO[C@@H]1[C@H](N(C)C(=O)c2ccccc2)C[C@H]2O[C@]1(C)n1c3ccccc3c3c4c(c5c6ccccc6n2c5c31)C(=O)NC4
GW441756, 2 µM: Cn1cc(/C=C2\C(=O)Nc3cccnc32)c2ccccc21
AZD7762, 0.1 µM: NC(=O)Nc1cc(-c2cccc(F)c2)sc1C(=O)N[C@H]1CCCNC1
PF-562271, 0.4 µM: CN(c1ncccc1CNc1nc(Nc2ccc3c(c2)CC(=O)N3)ncc1C(F)(F)F)S(C)(=O)=O
gemcitabine, 0.002 µM: Nc1ccn([C@@H]2O[C@H](CO)[C@@H](O)C2(F)F)c(=O)n1
cediranib, 2 µM: COc1cc2c(Oc3ccc4[nH]c(C)cc4c3F)ncnc2cc1OCCCN1CCCC1
nilotinib, 1 µM: Cc1cn(-c2cc(NC(=O)c3ccc(C)c(Nc4nccc(-c5cccnc5)n4)c3)cc(C(F)(F)F)c2)cn1
nilutamide, 5 µM: CC1(C)NC(=O)N(c2ccc([N+](=O)[O-])c(C(F)(F)F)c2)C1=O
MK-1775, 0.1 µM: C=CCn1c(=O)c2cnc(Nc3ccc(N4CCN(C)CC4)cc3)nc2n1-c1cccc(C(C)(C)O)n1
PLX4720, 0.4 µM: CCCS(=O)(=O)Nc1ccc(F)c(C(=O)c2c[nH]c3ncc(Cl)cc23)c1F
Src-I1, 10 µM: COc1cc2ncnc(Nc3ccc(Oc4ccccc4)cc3)c2cc1OC

| # | Pair | WM115 | A101D | MZ2-MEL |
|---|---|---|---|---|
| 1 | everolimus + JZL184 | 77.6 | 207 | - |
| 2 | PF-562271 + cediranib | 79.3 | 91.2 | - |
| 3 | PLX4720 + MK-1775 | 564 | 188 | 52.0 |
| 4 | AZD7762 + lenalidomide | 508 | 243 | 167 |
| 5 | TCS401 + nilutamide | 159 | 30.1 | 142 |
| 6 | lenalidomide + Src-I1 | 72.0 | 83.9 | 155 |
| 7 | midostaurin + nilotinib | 89.7 | 371 | 271 |
| 8 | gemcitabine + GW441756 | 247 | 96.3 | - |
| 9 | LFM-A13 + midostaurin | 513 | 125 | 226 |
| 10 | perifosine + crizotinib | 555 | 80.3 | 96.6 |
| 11 | pazopanib + veliparib | 273 | 107 | 152 |
| 12 | cediranib + CX-4945 | 148 | 190 | 58.5 |

Once more, the final 2:

Pair,WM115,A101D,MZ2-MEL
pazopanib + veliparib,273,107,152
cediranib + CX-4945,148,190,58.5

Data from the primary screen of doi:10.1371/journal.pone.0140310, rounded.